Measured values as given in paper PMC7819943, “Rice protein-binding microarrays: a tool to detect cis-acting elements near promoter regions in rice”.
The other results are listed elsewhere or left out.

biological target: T1, OsSMF1 (Oryza sativa, UniProt Q6ZLB0 1-436); assay: protein-binding microarray (RPBM); PBS, 2% BSA, 51.3 ng/ul salmon testes DNA, 50 uM zinc acetate, 200 nM TF, 25 C, 1 h; high values mean tight binding; conditions: protein: recombinant; tags: N-terminal polyhistidine and DsRed monomer fusion (pET32a); chain copies: 2; label: CyDye5-dUTP incorporated in the synthesized complementary strand; 3' TTTTT single-stranded linker to array surface; dsDNA, one strand shown
T1 sequence: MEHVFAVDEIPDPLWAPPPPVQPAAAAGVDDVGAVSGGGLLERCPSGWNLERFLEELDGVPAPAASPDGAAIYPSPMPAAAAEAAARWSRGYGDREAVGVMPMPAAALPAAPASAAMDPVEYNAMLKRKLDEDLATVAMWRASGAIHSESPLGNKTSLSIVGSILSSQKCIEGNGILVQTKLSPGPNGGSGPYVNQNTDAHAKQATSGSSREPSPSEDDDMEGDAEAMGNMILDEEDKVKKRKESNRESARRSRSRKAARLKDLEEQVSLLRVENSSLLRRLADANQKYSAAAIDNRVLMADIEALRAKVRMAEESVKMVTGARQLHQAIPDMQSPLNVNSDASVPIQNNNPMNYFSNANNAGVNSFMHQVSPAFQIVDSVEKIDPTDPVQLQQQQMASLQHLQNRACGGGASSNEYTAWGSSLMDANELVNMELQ
Procedure, shortened: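 Transcription factors were made in E. coli BL21-CodonPlus as N-terminal fusions to a polyhistidine tag and DsRed, then purified on Ni–NTA. After primer extension with Cy5-dUTP and blocking with 2% BSA, a custom Agilent array was exposed for 1 h at 25 °C to 200 nM protein in PBS, 2% BSA, salmon testes DNA and 50 µM zinc acetate. Washed arrays were scanned on an Axon 4000B, and the binding signal is per-feature fluorescence intensity in arbitrary units.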

| Sequence | binding signal |
| --- | --- |
| AATCGGACCCATTTATTCGGCCCAATCTGGCCCATGCTCGCGGAGTCACCTAGTGCAG | 3470 fluorescence intensity (a.u.) |
| GTCAAGTCAACATGCAAGTGGTACATCGTGTATTCACATTCGGAGTCACCTAGTGCAG | 4900 fluorescence intensity (a.u.) |
| CTACAGCACCATGATTTATTATTTATTATATTGGTGCAATCGGAGTCACCTAGTGCAG | 13600 fluorescence intensity (a.u.) |
| TAAAGTTCAAAATCATGACTCGTGATTTAACATCAATGATCGGAGTCACCTAGTGCAG | 3310 fluorescence intensity (a.u.) |
| CAACGTCACTCTACAGAGCTAACGCCGTCAGCACATCCCACGGAGTCACCTAGTGCAG | 5910 fluorescence intensity (a.u.) |
| CGCGGCGCGCACACGCCATGCCGGCATGCCGTGGCATACCCGGAGTCACCTAGTGCAG | 3990 fluorescence intensity (a.u.) |
| GATGAGTCGCCGAATACCTCCCGGAGCGCCGCCGCCCGCCCGGAGTCACCTAGTGCAG | 21700 fluorescence intensity (a.u.) |
| TGTGGGGCCCACGTGGGTCCAACGCTGACTCAGCAGCTACCGGAGTCACCTAGTGCAG | 29300 fluorescence intensity (a.u.) |
| AAATATTTCCACAAACACACCATGCATGATATATGTTTTACGGAGTCACCTAGTGCAG | 15200 fluorescence intensity (a.u.) |
| CTCAAATCAACAGCATTTGAACCCGGCGTGTGCGACGTGTCGGAGTCACCTAGTGCAG | 3510 fluorescence intensity (a.u.) |
| CTTCAGGCCTCACTGCGTCGTACGTGTCGGCTCCAACTCCCGGAGTCACCTAGTGCAG | 8940 fluorescence intensity (a.u.) |
| CCTGGGCGTCAACGAGCACGTGTCGCTGGGGCAGCTGCGCCGGAGTCACCTAGTGCAG | 4920 fluorescence intensity (a.u.) |
| CAACCACGAAACCTCACCGACATGTGGGACCCATGTGGCACGGAGTCACCTAGTGCAG | 4930 fluorescence intensity (a.u.) |
| AACCAAAATCCACGCGTACTCCTCTCGCAACAACTACCTCCGGAGTCACCTAGTGCAG | 3170 fluorescence intensity (a.u.) |
| AATAGAATGGAAACAAGGTATTTAAAATGAATTTTGAGAACGGAGTCACCTAGTGCAG | 33600 fluorescence intensity (a.u.) |
| CAGACTTCAGAACTTGATTGATTATAACTTAGTACTTCATCGGAGTCACCTAGTGCAG | 23400 fluorescence intensity (a.u.) |
| GGAGAAAGGAACGGAGGGTGCGTACAACAGTCGGTACTTGCGGAGTCACCTAGTGCAG | 3290 fluorescence intensity (a.u.) |
| CTGATCCTGTGATGTTGGCAACTCCACGTCGACAAAAGCACGGAGTCACCTAGTGCAG | 10300 fluorescence intensity (a.u.) |
| GTACTAGAATATCGAATTTAGATATAGAGGATGTGTCACACGGAGTCACCTAGTGCAG | 3270 fluorescence intensity (a.u.) |
| CTGACAAAGAGGGCCCACATGCAGCGTCACAACCCGGAGCCGGAGTCACCTAGTGCAG | 5030 fluorescence intensity (a.u.) |
| CTGATCTGACGATGGGTGACACGACTTGGGCTTAAACAATCGGAGTCACCTAGTGCAG | 3880 fluorescence intensity (a.u.) |

| Sequence | binding signal |
| --- | --- |
| TCGATAAATGTATAGGTGGACATGTAAAACGTTACCACTGCGGAGTCACCTAGTGCAG | 3340 fluorescence intensity (a.u.) |
| GAATAGCAGCAACGGCTAGTAGTACTCGTTACTGTGTTTACGGAGTCACCTAGTGCAG | 18900 fluorescence intensity (a.u.) |
| ATATATATATATATATATATATATATATATACACACACACCGGAGTCACCTAGTGCAG | 15200 fluorescence intensity (a.u.) |
| TGACTCTTATACTTATCAGCCGAAATTTAAAATTTCATTGCGGAGTCACCTAGTGCAG | 3730 fluorescence intensity (a.u.) |
| ATGTCAGGATGCCACGTCACACCCTTTCTTTCCCCTCCTCCGGAGTCACCTAGTGCAG | 45200 fluorescence intensity (a.u.) |
| AGTATTGGGGAAATCTTGATGGGCGCACGCACGCACGGCCCGGAGTCACCTAGTGCAG | 3430 fluorescence intensity (a.u.) |
| ACCGTCCTCGCCTTCTCCCGTGTTGCAGCCGTCATTGCTGCGGAGTCACCTAGTGCAG | 3810 fluorescence intensity (a.u.) |
| TGTATATGTTTGTATGTCCTAATCATTGTTTTCGGATCCACGGAGTCACCTAGTGCAG | 3750 fluorescence intensity (a.u.) |
| GTTTAAAAGATTCGTCTTGCAATTTACACGTAAACTATGTCGGAGTCACCTAGTGCAG | 4830 fluorescence intensity (a.u.) |
| GCAGCAGCGTTGGTGGTGGTGGTGTGTCATCACCAACATTCGGAGTCACCTAGTGCAG | 7760 fluorescence intensity (a.u.) |
| CGACCGACATATCTTCATAATTACCAAGTCATCATGCGACCGGAGTCACCTAGTGCAG | 4520 fluorescence intensity (a.u.) |
| AACTCCACCCCTCTCTATTCTAGACCGGATCTAGATGCTCCGGAGTCACCTAGTGCAG | 16000 fluorescence intensity (a.u.) |
| CGCCGCCCAACGTCAGCGCCACCTCATGCCACTGACGTCACGGAGTCACCTAGTGCAG | 13800 fluorescence intensity (a.u.) |
| CATCACTAGGGCCATTTTCGGTGAAATGACTCTATGGGAGCGGAGTCACCTAGTGCAG | 3470 fluorescence intensity (a.u.) |
| TCTGCATTTTGTACACATTACATATGATGATTATTTGGATCGGAGTCACCTAGTGCAG | 3220 fluorescence intensity (a.u.) |
| TCCCGACGACCCGCCGGCCGCGCGCATGCGTCATCACCCACGGAGTCACCTAGTGCAG | 18300 fluorescence intensity (a.u.) |
| CTGCTACTGCTCGCTAGCTGGCTGCTCCAACGGTGGATGGCGGAGTCACCTAGTGCAG | 3260 fluorescence intensity (a.u.) |
| TGCATATATGCATCATCGCAACGGTGTATATTTGTGGTGTCGGAGTCACCTAGTGCAG | 4630 fluorescence intensity (a.u.) |
| AATTCTATTGTATGAGTTGTCTGCACGTCATCGAAATATGCGGAGTCACCTAGTGCAG | 10900 fluorescence intensity (a.u.) |
| CAACCCGGGAGGCGAGGCGACCGTCACCAAGGCCAGCCGTCGGAGTCACCTAGTGCAG | 3320 fluorescence intensity (a.u.) |
| TGCGGCAAGGACTCCGCTGCCTGCTCACCACCATCACGCACGGAGTCACCTAGTGCAG | 3190 fluorescence intensity (a.u.) |

Shown with bars between the fields: entries from further up.
Sequence | binding signal
GGAGAAAGGAACGGAGGGTGCGTACAACAGTCGGTACTTGCGGAGTCACCTAGTGCAG | 3290 fluorescence intensity (a.u.)
CTGATCCTGTGATGTTGGCAACTCCACGTCGACAAAAGCACGGAGTCACCTAGTGCAG | 10300 fluorescence intensity (a.u.)
